In PubChem BioAssay AID1487 (National Center for Advancing Translational Sciences (NCATS), 2009):
This is one part of the list. Further columns of the screen follow, without active or inactive calls. Compounds called inactive in the main read-out are mostly missing here. The note in brackets gives the kind of curve behind each potency; many fits are weak.

Test: qHTS Assay for Modulators of Lamin A Splicing
Conditions: HeLa LMNA splicing GFP/RFP minigene ratio, 48 h
Method in brief: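 Read-out is the ratio of GFP to DsRed2 object intensity, acquired by 488 nm laser-scanning cytometry on HeLa lamin A-EGFP minigene reporter cells. Compound incubation 48 hrs at 37 °C in Opti-MEM with 2% FBS; DMSO 0.5% final.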

[1] = measured here: GFP splicing reporter channel
[2] = measured here: RFP viability control channel

| SMILES | AC50 [1] | AC50 [2] |
| --- | --- | --- |
| CCC(=O)OCC(=O)[C@@]1(OC(=O)CC)[C@H](C)C[C@@H]2[C@@H]3[C@H]([C@@H](O)C[C@@]21C)[C@]1(C)C=CC(=O)C=C1C[C@@H]3Cl | 0.0178 µM [rising, full curve, poor fit] | 0.447 µM [falling, partial curve] |
| N#C/C(=C\c1ccc(O)c(O)c1)C(=O)NCCCc1ccccc1 | 3.16 µM [falling, full curve] | 31.6 µM [rising, single point] |
| CN(Cc1ccon1)Cc1cn(C)nc1-c1ccc2c(c1)OCCO2 | 4.47 µM [rising, partial curve, poor fit] |  |
| CCCCCCCCCCCCCCCC(=O)O | 0.000794 µM [rising, full curve, poor fit] |  |
| CCOc1cc(-c2c(C)c(CC)nc(N)c2C#N)ccc1O |  | 35.5 µM [rising, single point] |
| COc1ccc(CC(=O)Nc2nnc(C(C)C)s2)cc1OC |  | 35.5 µM [falling, partial curve, poor fit] |
| CC1(C)Cc2c(sc3c2c(=N)n(Cc2ccco2)c(=O)n3CC(=O)Nc2cccc(Cl)c2)CO1 | 35.5 µM [rising, single point] | 35.5 µM [rising, single point] |
| O=C(CSc1ncnc2sc3c(c12)CCCC3)N1CCC(c2noc3ccc(F)cc23)CC1 | 3.55 µM [falling, partial curve, poor fit] |  |
| CCOc1ccc(NC(=S)c2ccncc2)cc1 |  | 10 µM [rising, partial curve] |
| CN(C)c1cccc(NC(=O)Cc2ccc(F)cc2)c1 | 12.6 µM [rising, single point] |  |
| CCc1ccc(/C=N/NC(=O)c2c[nH]c3ccccc23)s1 |  | 20 µM [rising, partial curve, poor fit] |
| O=[N+]([O-])c1cc(S(=O)(=O)Nc2ccccc2)ccc1-n1nnc2ccccc21 |  | 35.5 µM [rising, single point] |
| O=C(CN(Cc1ccccc1)S(=O)(=O)c1ccc2c(c1)OCCO2)N/N=C/c1cccc(Br)c1 |  | 12.6 µM [rising, single point] |
| O=C(O)CN1C(=O)SC(Nc2ccc(Cl)cc2)C1=O (configuration not stated) |  | 22.4 µM [falling, partial curve, poor fit] |
| CCCCOc1ccc2c(C)cc(=O)oc2c1OCCCC | 35.5 µM [rising, single point] | 1.41 µM [rising, partial curve] |
| CCn1c(=O)c(C(=O)NCc2ccccn2)c(O)c2ccccc21 | 11.2 µM [rising, single point] | 35.5 µM [rising, single point] |
| CCn1c2ccccc2c2cc(NC(=O)CSc3nnc(-c4ccccc4)o3)ccc21 |  | 12.6 µM [rising, partial curve] |
| COc1ccc(COc2ccccc2C(=O)Nc2ccccn2)cc1[N+](=O)[O-] |  | 35.5 µM [falling, single point] |

Quoted at random: 2 compounds from above

| SMILES | AC50 [1] | AC50 [2] |
| --- | --- | --- |
| O=[N+]([O-])c1cc(S(=O)(=O)Nc2ccccc2)ccc1-n1nnc2ccccc21 |  | 35.5 µM [rising, single point] |
| O=C(CN(Cc1ccccc1)S(=O)(=O)c1ccc2c(c1)OCCO2)N/N=C/c1cccc(Br)c1 |  | 12.6 µM [rising, single point] |

(continued)

| SMILES | AC50 [1] | AC50 [2] |
| --- | --- | --- |
| COc1ccc(-c2ccc(SCC(=O)NCc3ccco3)nn2)cc1 | 3.98 µM [rising, full curve, poor fit] | 2.82 µM [rising, full curve] |
| CCN(CC)CCNc1ncnc2c1sc1nc(N3CCOCC3)c3c(c12)CC(C)(C)SC3 | 22.4 µM [falling, single point] | 35.5 µM [falling, single point] |
| C=C[C@](C)(O)CCC1C(=C)CCC2[C@@](C)(CO)CCC[C@@]12C (some centres not stated) | 35.5 µM [rising, single point] | 11.2 µM [rising, partial curve] |
| Cc1ccc(-c2cn3cc([N+](=O)[O-])ccc3n2)cc1 | 10 µM [rising, partial curve] | 8.91 µM [rising, partial curve] |
| COc1ccc(S(=O)(=O)NCC(c2cccnc2)N2CCN(c3ccc(F)cc3)CC2)cc1C (configuration not stated) |  | 11.2 µM [rising, single point] |
| NC(=NCCc1ccc(Cl)cc1)NS(=O)(=O)c1ccc(F)cc1 | 35.5 µM [rising, single point] | 35.5 µM [rising, single point] |
| Cc1ccc(C)c(Cn2c(=O)n(CC3CCC(C(=O)N4CCOCC4)CC3)c(=O)c3sccc32)c1 (configuration not stated) |  | 11.2 µM [rising, partial curve] |
| O=P(CCO)(c1ccccc1)c1ccccc1 | 0.00447 µM [rising, full curve, poor fit] |  |
| CCN(Cc1ccccc1)c1ccc(/C=N/NS(=O)(=O)c2cccc([N+](=O)[O-])c2)cc1 |  | 4.47 µM [rising, single point] |
| CCCCc1ccc(NC2=NCC(=O)N2CCc2ccccc2)cc1 | 35.5 µM [falling, single point] |  |
| O=C(c1ccc(S(=O)(=O)N2CCOCC2)cc1)N(Cc1ccco1)Cc1cccs1 |  | 11.2 µM [rising, single point] |
| CCOc1ccc(C(=O)OCCN(CC)CC)cc1 | 4.47 µM [rising, partial curve, poor fit] | 10 µM [rising, partial curve, poor fit] |
| COc1cccc(CNS(=O)(=O)c2ccc3[nH]c4c(c3c2)CCCCC4)c1 | 0.00501 µM [falling, full curve] |  |
| N#Cc1cccc(-c2nc3cnc(Oc4cccc(Cl)c4)nc3n(C3CC3)c2=O)c1 | 5.62 µM [falling, full curve] |  |
| O=C(CSC1=NCCS1)NC(NC(=O)CSC1=NCCS1)c1ccccc1 |  | 14.1 µM [rising, partial curve] |
| Cn1ncc(Br)c1C(=O)N1CCc2ccccc21 | 14.1 µM [rising, single point] |  |
| COC(=O)c1cccc([N+](=O)[O-])c1CN1CCCC(C(N)=O)C1 (configuration not stated) | 0.002 µM [rising, full curve, poor fit] |  |
| Cn1cc(C(=O)c2ccc(Cl)cc2)cc1-c1nc2ccccc2n1C |  | 20 µM [falling, partial curve] |
